Publication PMC11060674

The chains behind the UniProt entries cited, without tags or fusion partners. Where a name states a change or a piece, a line headed by the entry shows the natural chain unless it says otherwise.
UniProt F6H3T7: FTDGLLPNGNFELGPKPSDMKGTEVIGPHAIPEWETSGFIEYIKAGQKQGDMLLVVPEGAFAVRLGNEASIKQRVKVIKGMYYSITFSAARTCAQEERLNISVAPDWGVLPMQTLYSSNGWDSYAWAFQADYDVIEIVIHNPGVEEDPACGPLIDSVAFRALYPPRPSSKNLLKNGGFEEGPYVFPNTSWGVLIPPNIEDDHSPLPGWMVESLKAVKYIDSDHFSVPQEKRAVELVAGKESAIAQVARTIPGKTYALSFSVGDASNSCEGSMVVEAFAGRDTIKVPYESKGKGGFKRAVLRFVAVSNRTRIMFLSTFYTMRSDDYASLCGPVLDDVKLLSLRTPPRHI
UniProt E0CQG0: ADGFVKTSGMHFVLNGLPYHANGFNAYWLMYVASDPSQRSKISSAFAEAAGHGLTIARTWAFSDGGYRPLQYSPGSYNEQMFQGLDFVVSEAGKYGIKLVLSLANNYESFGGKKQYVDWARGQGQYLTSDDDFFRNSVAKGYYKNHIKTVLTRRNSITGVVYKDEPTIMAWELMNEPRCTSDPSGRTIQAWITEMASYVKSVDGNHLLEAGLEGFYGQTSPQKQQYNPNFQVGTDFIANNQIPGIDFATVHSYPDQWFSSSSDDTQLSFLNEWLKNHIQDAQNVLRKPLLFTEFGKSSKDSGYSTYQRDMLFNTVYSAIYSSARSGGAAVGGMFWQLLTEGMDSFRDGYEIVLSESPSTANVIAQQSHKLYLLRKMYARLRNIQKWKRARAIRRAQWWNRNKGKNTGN
UniProt D7TFE6: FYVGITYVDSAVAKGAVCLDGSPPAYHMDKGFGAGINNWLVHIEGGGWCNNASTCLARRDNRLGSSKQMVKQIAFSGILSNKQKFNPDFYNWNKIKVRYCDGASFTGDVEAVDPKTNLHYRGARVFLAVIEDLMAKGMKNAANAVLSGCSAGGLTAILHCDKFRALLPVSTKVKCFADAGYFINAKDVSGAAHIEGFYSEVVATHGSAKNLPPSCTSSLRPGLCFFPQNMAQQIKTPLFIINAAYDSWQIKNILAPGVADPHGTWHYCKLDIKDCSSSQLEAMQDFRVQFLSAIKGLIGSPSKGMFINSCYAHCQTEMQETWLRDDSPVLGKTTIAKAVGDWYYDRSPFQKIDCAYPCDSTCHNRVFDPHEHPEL

Assays:
[1] = target: VvDUF642, split-YFP (BiFC) fusion (Vitis vinifera) (UniProt F6H3T7); assay: split reporter; split-YFP (nYFP/cYFP fusions) co-infiltrated by Agrobacterium into N. benthamiana leaf epidermal cells; cYFP empty vector as negative control
[2] = target: DUF642-flag (Vitis vinifera) (UniProt F6H3T7); assay: co-IP; total protein of N. benthamiana leaves transiently expressing DUF642-flag, VvPAE-HA and GFP-flag; anti-flag antibody on protein A agarose, 4 °C, 2 h; blots with anti-flag and anti-HA

binding [1] | binding [2] | Substance
no binding | – | VvCDP, split-YFP (BiFC) fusion (from UniProt E0CQG0)
binds | – | VvPAE, split-YFP (BiFC) fusion (from UniProt D7TFE6) (enzyme)
– | binds | VvPAE-HA (from UniProt D7TFE6) (enzyme)

No constants are given. Whether binding was seen depends on the method and setting. Binding seen in cells or lysates may run through a third protein. Binding can be weak; no strength is given.
